Experimental data taken from article PMC8353492.
Results are given in words; binding and its absence hold for the method and conditions named. For some of these results: Binding seen in cells or lysates may run through a third protein. Some binding calls cover weakened binding; strength is not graded here.

Amino acid sequences for entries named in this document (tags omitted).
UniProt P14598: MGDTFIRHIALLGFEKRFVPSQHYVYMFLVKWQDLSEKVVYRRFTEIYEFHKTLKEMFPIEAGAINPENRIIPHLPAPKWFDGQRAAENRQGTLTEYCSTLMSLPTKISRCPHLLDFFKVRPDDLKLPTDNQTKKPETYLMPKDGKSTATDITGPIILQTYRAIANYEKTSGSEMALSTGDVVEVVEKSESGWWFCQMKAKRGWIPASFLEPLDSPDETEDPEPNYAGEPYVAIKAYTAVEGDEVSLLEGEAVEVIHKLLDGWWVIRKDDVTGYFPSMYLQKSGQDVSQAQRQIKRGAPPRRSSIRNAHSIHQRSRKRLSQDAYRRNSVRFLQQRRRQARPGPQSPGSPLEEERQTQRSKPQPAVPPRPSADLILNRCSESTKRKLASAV
UniProt P19878: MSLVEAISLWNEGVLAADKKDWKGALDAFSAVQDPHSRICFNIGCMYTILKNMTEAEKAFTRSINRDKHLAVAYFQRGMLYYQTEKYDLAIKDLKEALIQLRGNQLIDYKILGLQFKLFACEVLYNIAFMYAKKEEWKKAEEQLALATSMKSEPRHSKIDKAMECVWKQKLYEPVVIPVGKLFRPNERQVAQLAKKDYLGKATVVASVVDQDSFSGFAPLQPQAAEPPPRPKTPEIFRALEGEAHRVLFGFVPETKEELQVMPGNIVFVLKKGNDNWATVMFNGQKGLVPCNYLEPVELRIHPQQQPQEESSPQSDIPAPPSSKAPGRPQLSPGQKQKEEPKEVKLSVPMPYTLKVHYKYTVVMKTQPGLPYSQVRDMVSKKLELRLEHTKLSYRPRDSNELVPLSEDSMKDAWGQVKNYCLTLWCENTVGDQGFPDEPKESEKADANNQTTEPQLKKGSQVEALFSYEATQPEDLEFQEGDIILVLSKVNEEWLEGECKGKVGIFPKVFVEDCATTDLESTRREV

T1: gp91 (of cytochrome b558) in dHL60 cells (human (endogenous in HL60)) (UniProt P04839)
T1 sequence: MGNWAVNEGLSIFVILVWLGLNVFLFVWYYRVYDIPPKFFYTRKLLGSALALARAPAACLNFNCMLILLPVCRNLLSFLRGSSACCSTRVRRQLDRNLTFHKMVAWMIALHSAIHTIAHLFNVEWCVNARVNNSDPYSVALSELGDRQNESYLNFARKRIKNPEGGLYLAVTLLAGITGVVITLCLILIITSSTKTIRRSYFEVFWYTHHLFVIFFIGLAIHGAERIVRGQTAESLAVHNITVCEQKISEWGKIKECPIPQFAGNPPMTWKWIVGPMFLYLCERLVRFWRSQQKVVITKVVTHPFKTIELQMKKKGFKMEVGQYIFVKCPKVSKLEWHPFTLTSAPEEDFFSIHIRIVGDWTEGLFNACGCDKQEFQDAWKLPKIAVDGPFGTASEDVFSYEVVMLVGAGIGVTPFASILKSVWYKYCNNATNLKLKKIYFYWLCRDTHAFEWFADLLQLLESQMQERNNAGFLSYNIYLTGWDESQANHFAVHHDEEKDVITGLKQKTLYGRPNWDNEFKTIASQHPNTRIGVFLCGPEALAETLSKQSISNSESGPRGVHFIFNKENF

T2: gp91 (NOX2) from the HEK293 cell line (UniProt P04839)
T2 sequence: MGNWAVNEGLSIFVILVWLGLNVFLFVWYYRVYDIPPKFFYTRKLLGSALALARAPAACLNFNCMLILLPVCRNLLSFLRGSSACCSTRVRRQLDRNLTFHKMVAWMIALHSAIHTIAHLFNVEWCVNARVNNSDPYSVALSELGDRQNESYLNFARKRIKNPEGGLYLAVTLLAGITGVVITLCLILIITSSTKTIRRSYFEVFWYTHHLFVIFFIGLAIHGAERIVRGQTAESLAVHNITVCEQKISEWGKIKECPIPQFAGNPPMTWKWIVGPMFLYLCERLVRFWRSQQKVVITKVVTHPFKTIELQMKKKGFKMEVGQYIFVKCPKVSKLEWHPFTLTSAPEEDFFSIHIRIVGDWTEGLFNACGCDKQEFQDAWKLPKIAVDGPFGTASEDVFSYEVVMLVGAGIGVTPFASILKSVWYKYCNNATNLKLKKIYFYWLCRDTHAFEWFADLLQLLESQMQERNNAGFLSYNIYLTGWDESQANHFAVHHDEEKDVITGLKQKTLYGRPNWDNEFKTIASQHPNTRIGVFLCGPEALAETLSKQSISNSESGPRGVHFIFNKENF


How the values were obtained:
[1] = target: T1, gp91 (of cytochrome b558) in dHL60 cells (human (endogenous in HL60)); assay: co-IP; as a5, in G12V Rac-expressing dHL60 cells; data not shown
[2] = target: T1, gp91 (of cytochrome b558) in dHL60 cells (human (endogenous in HL60)); assay: co-IP; PMA-stimulated dHL60 cells, time course; plasma membrane fraction in 5 mM MgCl2, 2% Triton X-100, 50 mM Tris-HCl pH 7.4; pulled down with magnetic agarose beads carrying a monoclonal gp91 antibody; Western blots for p40, p47, p67, Rac; also cells treated with SITS or DIDS (100 μM; recruitment of wt Rac significantly impeded) and Vav knocked-down cells with exogenous O2^− (∼2 μM)
[3] = target: T2, gp91 (NOX2) from the HEK293 cell line; assay: co-purification (heparin and hydroxyapatite chromatography); cytochrome b558 purified from a HEK293 cell line that stably expresses NOX2 with p22

Molecule	binding [1]	binding [2]	binding [3]
p47 in dHL60 cells (from UniProt P14598 1-390)	binds	binds	–
p67 in dHL60 cells (from UniProt P19878 1-526)	binds	binds	–

Now from value to molecule:

binding [1]	binding [2]	binding [3]	Molecule
–	–	binds	p22 from the HEK293 cell line (protein, UniProt P13498 1-195) MGQIEWAMWANEQALASGLILITGGIVATAGRFTQWYFGAYSIVAGVFVCLLEYPRGKRKKGSTMERWGQKYMTAVVKLFGPFTRNYYVRAVLHLLLSVPAGFLLATILGTACLAIASGIYLLAAVRGEQWTPIEPKPRERPQIGGTIKQPPSNPPPRPPAEARKKPSEEEAAVAAGGPPGGPQVNPIPVTDEVV
binds	binds	–	p40 in dHL60 cells (protein, UniProt Q15080 1-339) MAVAQQLRAESDFEQLPDDVAISANIADIEEKRGFTSHFVFVIEVKTKGGSKYLIYRRYRQFHALQSKLEERFGPDSKSSALACTLPTLPAKVYVGVKQEIAEMRIPALNAYMKSLLSLPVWVLMDEDVRIFFYQSPYDSEQVPQALRRLRPRTRKVKSVSPQGNSVDRMAAPRAEALFDFTGNSKLELNFKAGDVIFLLSRINKDWLEGTVRGATGIFPLSFVKILKDFPEEDDPTNWLRCYYYEDTISTIKDIAVEEDLSSTPLLKDLLELTRREFQREDIALNYRDAEGDLVRLLSDEDVALMVRQARGLPSQKRLFPWKLHITQKDNYRVYNTMP
